In this test the target is T1, alpha1 anti-chymotrypsin (ACT) (UniProt P01011).
T1 sequence (looked up): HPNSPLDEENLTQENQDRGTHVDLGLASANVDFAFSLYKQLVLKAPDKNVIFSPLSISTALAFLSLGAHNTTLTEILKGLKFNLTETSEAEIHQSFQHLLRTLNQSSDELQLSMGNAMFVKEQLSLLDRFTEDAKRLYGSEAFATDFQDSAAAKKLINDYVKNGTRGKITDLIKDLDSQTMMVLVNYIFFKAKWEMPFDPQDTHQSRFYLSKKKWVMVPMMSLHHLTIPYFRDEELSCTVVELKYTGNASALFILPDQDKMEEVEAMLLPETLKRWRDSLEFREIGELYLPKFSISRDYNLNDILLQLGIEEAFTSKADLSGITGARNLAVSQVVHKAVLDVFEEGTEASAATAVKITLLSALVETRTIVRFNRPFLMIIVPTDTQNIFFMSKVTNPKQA
In words: PSA-ACT complex used in HUVEC Matrigel tube formation assay; complex formation itself not assayed.

Chains of the proteins cited; added tags and fusions are not shown. Lines headed by an entry give the natural chain unless they say otherwise; changes in a name come on top.
UniProt P07288: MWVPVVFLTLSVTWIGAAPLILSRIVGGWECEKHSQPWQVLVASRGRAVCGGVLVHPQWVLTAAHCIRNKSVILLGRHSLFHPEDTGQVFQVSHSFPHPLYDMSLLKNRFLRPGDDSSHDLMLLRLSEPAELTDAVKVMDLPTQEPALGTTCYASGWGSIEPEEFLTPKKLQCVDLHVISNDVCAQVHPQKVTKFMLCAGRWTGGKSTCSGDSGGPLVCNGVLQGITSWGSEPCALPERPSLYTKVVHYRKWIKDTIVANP

No constants are given. Whether binding was seen depends on the method and setting. Some results given as binding are weak or reduced against the parent protein; the word gives no strength.

On to “f-PSA (free PSA purified from human seminal plasma) (from UniProt P07288 25-261) (enzyme)”, for which the binding entry is listed as “binds”.

The values above are taken from US20140309170A1.
